Values from PubChem BioAssay AID504793 (Drosophila RNAi Screening Center, 2011).

- Aim: 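Whole-genome screen for parts of the DNA damage checkpoint at G2/M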 (primary screen)
- System: Drosophila S2R+ cells
- Knock-down reagent: long dsRNA against Drosophila genes, about 0.25 µg dsRNA per well
- Duration: 4 days of dsRNA, then 4 hours of drug before read-out
- Conditions: doxorubicin 0.5 µM for 4 hours to cause double-strand breaks, in cells also given a low, harmless dose of dsRNA against nbs to sensitise the assay
- Read-out: 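Mitotic index as the number of phospho-histone H3-positive cells in each well following doxorubicin, given as raw counts without normalisation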
- Scale: mitotic cells: higher = more cells in mitosis, weaker G2 arrest
- Rule for the call: 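a call needs confirmation in secondary tests, with other dsRNAs and a check of mitotic timing without damage, not just a high primary count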
- Meaning of the calls: active = confirmed in follow-up tests; inactive = not confirmed
In all, the deposit lists about 23,000 reagents; this is a random part of those that have a named target and a result. Of all reagents, 62 (0.27%) are marked active. 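Calls come from follow-up tests whose scores are not deposited, so confirmed genes may have low counts here; counts are not normalised per plate.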 Raw values vary from plate to plate and are shown uncorrected. Names joined by + are all predicted targets of the reagent.

The first 3 records, ahead of the listing:
CG14931 [DRSC02413] → mitotic cells, replicate 1: 2; Call: inactive
sns [DRSC07687] → mitotic cells, replicate 1: 4; Call: inactive
sns [DRSC07688] → mitotic cells, replicate 1: 10; Call: inactive

Main list, repeating the preview:
CG14931 [DRSC02413] → mitotic cells, replicate 1: 2; Call: inactive
sns [DRSC07687] → mitotic cells, replicate 1: 4; Call: inactive
sns [DRSC07688] → mitotic cells, replicate 1: 10; Call: inactive
sns [DRSC07689] → mitotic cells, replicate 1: 5; Call: inactive
sns [DRSC07691] → mitotic cells, replicate 1: 8; Call: inactive
CG14609 [DRSC12553] → mitotic cells, replicate 1: 6; Call: inactive
CG11596 [DRSC18540] → mitotic cells, replicate 1: 6; Call: inactive
CG11596 [DRSC28643] → mitotic cells, replicate 1: 7; Call: inactive
CR31292 [DRSC13120] → mitotic cells, replicate 1: 4; Call: inactive
TfIIFbeta [DRSC16884] → mitotic cells, replicate 1: 9; Call: inactive
TfIIFbeta [DRSC21447] → mitotic cells, replicate 1: 12; Call: inactive
TfIIFbeta [DRSC29742] → mitotic cells, replicate 1: 17; Call: inactive
CG13362 [DRSC17897] → mitotic cells, replicate 1: 10; Call: inactive
CG13362 [DRSC25324] → mitotic cells, replicate 1: 7; Call: inactive
Obp8a [DRSC17868] → mitotic cells, replicate 1: 18; Call: inactive
Obp8a [DRSC29698] → mitotic cells, replicate 1: 8; Call: inactive
Reg-5 [DRSC04647] → mitotic cells, replicate 1: 6; Call: inactive
GstD3 [DRSC15571] → mitotic cells, replicate 1: 4; Call: inactive
GstD3 [DRSC24755] → mitotic cells, replicate 1: 4; Call: inactive
ImpL1 [DRSC11197] → mitotic cells, replicate 1: 6; Call: inactive
ImpL1 [DRSC28367] → mitotic cells, replicate 1: 4; Call: inactive
CG14204 [DRSC19559] → mitotic cells, replicate 1: 7; Call: inactive
CG14204 [DRSC29941] → mitotic cells, replicate 1: 11; Call: inactive
CG14053 [DRSC17908] → mitotic cells, replicate 1: 4; Call: inactive
CG10252 [DRSC14221] → mitotic cells, replicate 1: 5; Call: inactive
CG7369 [DRSC23501] → mitotic cells, replicate 1: 6; Call: inactive
CG10553 [DRSC14254] → mitotic cells, replicate 1: 11; Call: inactive
Unc-115b + p24-2 + Unc-115a [DRSC16502] → mitotic cells, replicate 1: 9; Call: inactive
dpr15 [DRSC12891] → mitotic cells, replicate 1: 7; Call: inactive
dpr15 [DRSC14187] → mitotic cells, replicate 1: 1; Call: inactive
dpr15 [DRSC14188] → mitotic cells, replicate 1: 6; Call: inactive
PGRP-LC [DRSC08980] → mitotic cells, replicate 1: 8; Call: inactive
PGRP-LC [DRSC10416] → mitotic cells, replicate 1: 1; Call: inactive
PGRP-LC [DRSC10417] → mitotic cells, replicate 1: 5; Call: inactive
PGRP-LC [DRSC28556] → mitotic cells, replicate 1: 9; Call: inactive
Ptpmeg2 [DRSC18277] → mitotic cells, replicate 1: 10; Call: inactive
Ptpmeg2 [DRSC18278] → mitotic cells, replicate 1: 9; Call: inactive
Ptpmeg2 [DRSC23303] → mitotic cells, replicate 1: 10; Call: inactive
Ptpmeg2 [DRSC26646] → mitotic cells, replicate 1: 11; Call: inactive
CG14448 [DRSC11705] → mitotic cells, replicate 1: 5; Call: inactive
CG14448 [DRSC30062] → mitotic cells, replicate 1: 1; Call: inactive
CG14764 [DRSC05072] → mitotic cells, replicate 1: 4; Call: inactive
CG14764 [DRSC06498] → mitotic cells, replicate 1: 9; Call: inactive
CG14764 [DRSC06844] → mitotic cells, replicate 1: 3; Call: inactive
